Measured values: PubChem BioAssay AID602269 (Broad Institute, 2012)
Where “and” joins values, the source holds several entries; their conditions need not be identical. Equal values may be shown once. Inconclusive results, whose numbers are uncertain, are shown with a selection of clear calls.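 Rule for the calls: active = active in every separate test run, each with half-maximal potency at or below twice its top valid dose; inconclusive = test runs disagree, or a flat partial drop, or poor fit; inactive = inactive in every test run, including signal rising instead.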

Experiment: decrease of heat-induced HSF-1 GFP reporter, dose response, NIH3T3 R4-3T3 cells, GFP/RFP, dry powder (AID 602269)
Conditions: R4-3T3 NIH3T3 HSF-1 GFP / Tet-On RFP fluorescence, 48 h; at 26 µM (top of the series)
Summary of the method: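 Material: R4-3T3 mouse NIH3T3 fibroblasts with heat-shock-element GFP and Tet-On RFP reporters. Benchmarks: positive control Didemnin B, 400 nM. Reagent: doxycycline 2 µg/mL final and heat shock. Detection: bottom-read fluorescence, GFP ex 485/em 535 nm, RFP ex 550/em 595 nm. Times: 2 h 42 °C shock, then 48 h 37 °C.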

CCc1ccc(NC(=O)C2C3CCC(O3)C2C(=O)O)cc1 (stereo unspecified)
activity change, negative = inhibition: inconclusive: -46.9% and inactive: -14.3%
